# PMC5996148
# Several values for one entry are separate records, joined by “and”; a condition that tells them apart may be missing. Equal values may be shown once. This is one part of the list. For some of these results: The exact form of the protein is not confirmed.
# Experiments:
# Experiment in all cases: protein microarray (ProtoArray v5.0), streptavidin-Alexa Fluor 647
# Conditions in all cases: 3'-biotin; 20 mM Tris (pH 7.5), 5 mM MgCl2, 100 mM KCl, 0.1% Tween-20, A/T-rich and random oligonucleotide blockers; temperature not stated; high values mean tight binding
# TP53I3 = molecular target: T1, TP53I3 (UniProt Q53FA7)
# T1 sequence: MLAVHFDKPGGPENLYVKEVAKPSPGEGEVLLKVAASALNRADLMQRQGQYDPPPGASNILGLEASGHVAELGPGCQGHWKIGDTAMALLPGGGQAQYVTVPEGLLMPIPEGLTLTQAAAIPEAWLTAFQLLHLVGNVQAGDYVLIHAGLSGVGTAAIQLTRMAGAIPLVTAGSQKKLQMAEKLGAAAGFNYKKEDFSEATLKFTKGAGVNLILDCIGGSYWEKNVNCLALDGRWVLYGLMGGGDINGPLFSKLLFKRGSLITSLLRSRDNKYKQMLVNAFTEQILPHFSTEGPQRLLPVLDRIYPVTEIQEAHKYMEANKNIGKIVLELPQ
# TPH1 (human) = system: TPH1 (human)
# TPM3 (human) = system: TPM3 (human)
# TPM4 (human) = system: TPM4 (human)
# TPP1 (human) = system: TPP1 (human)
# TPT1 (human) = system: TPT1 (human)
# TRA16 (human) = system: TRA16 (human)
# TRAPPC3 (human) = system: TRAPPC3 (human)
# TRBV5-4 (human) = system: TRBV5-4 (human)
# TRIB2 (human) = system: TRIB2 (human)
sequence,measurement,setting,value
GGTGACAGGGGTATGGGGAGGGG [G4-2 biotinylated (Ct1)],binding signal,TP53I3,3.64 z-score
same,binding signal,TPH1 (human),-0.391 z-score
same,binding signal,TPM3 (human),-0.39 z-score and -0.395 z-score
same,binding signal,TPM4 (human),-0.387 z-score
same,binding signal,TPP1 (human),-0.387 z-score
same,binding signal,TPT1 (human),-0.389 z-score
same,binding signal,TRA16 (human),-0.399 z-score
same,binding signal,TRAPPC3 (human),-0.396 z-score
same,binding signal,TRBV5-4 (human),-0.37 z-score
same,binding signal,TRIB2 (human),-0.386 z-score
